Results deposited as PubChem BioAssay AID720505 (Drosophila RNAi Screening Center, 2013)
The screen tested about 20,000 reagents; below is a random part of those that have a named target and a result. Of all reagents, about 2,100 (10%) are marked active. 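Raw plate signals without normalisation; calls rest on control-based scores that were not deposited; replicate 2 separates called from uncalled poorly.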 Reagents against one gene are numbered here. A plus sign joins genes that one reagent is predicted to hit. Not given: the amount of reagent, the time to read-out.

- Screen: 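Genes needed for store-operated calcium entry in fly cells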 (primary screen)
- Cells: Drosophila S2R+ cells
- Reagents: long dsRNA against Drosophila genes
- Conditions: thapsigargin (2 µM) in calcium-free buffer to empty internal stores, then 2 mM calcium added back
- Read-out: 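Fluo-4 signal in 384-well plates read on a FLIPR after thapsigargin (2 µM, calcium-free) store depletion and 2 mM calcium add-back; unnormalised mean endpoint per well; screen run twice, selected wells retested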
- Direction: calcium signal and retest calcium signal: higher = more calcium entry after store depletion
- Hit rule: 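Knock-downs counted as hits when calcium entry dropped relative to STIM1 positive and Rho1 negative controls present on each plate; roughly 1500 genes called, with reductions of differing size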
- Calls: active = called as lowering calcium entry; inactive = not called

no.	target gene	reagent	calcium signal, replicate 1	calcium signal, replicate 2	retest calcium signal, replicate 1	retest calcium signal, replicate 2	activity call
1	Nthl1	1	168	118			inactive
2	CG5662	1	152	152			inactive
3	lncRNA:CR32835	1	82.8	125			inactive
4	Gdh	1	111	180			inactive
5	GstD2	1	112	102			inactive
6	CG1136	1	137	84.9			inactive
7	CG8414	1	127	109			inactive
8	CG17192	1	150	178			inactive
9	Rpn11	1	65.8	102			active
10	Gad1	1	69.1	87.3			active
11	alpha-Cat	1	63.9	115	143	86	active
12	l(2)34Fc	1	116	118			inactive
13	Dgkepsilon	1	152	161			inactive
14	fbp	1	127	105			inactive
15	RpL24	1	78	114			active
16	klu	1	67.3	35.8			active
17	H	1	212	194			inactive
18	CG31760	1	75.7	107			inactive
19	CG8326	1	171	159			inactive
20	mRpL1	1	127	132			inactive
21	Dcp-1	1	171	105			inactive
22	wgn	1	77.6	106			inactive
23	pdm3	1	106	122			inactive
24	pdm3	2	103	158			inactive
25	pdm3	3	96.1	228			inactive
26	pdm3	4	124	113			inactive
27	Bmcp	1	155	94.1			inactive
28	CG15386 + CG42371	1	122	175			inactive
29	Cyp6a17	1	140	111			inactive
30	Sfmbt	1	94.8	125			inactive
31	CG13659	1	289	135			inactive
32	CG4613	1	119	138			inactive
33	Sirt7	1	68	92.5			inactive
34	CG6845	1	135	111			inactive

Look-ups from the list.
pdm3 #1, calcium signal, replicate 1 → 106
Entry of CG4613 in “calcium signal, replicate 1”: 119
Value of CG15386 + CG42371 under “calcium signal, replicate 1”: 122
